Some entries share one result that the patent states for a list of compounds.
Target: T1, 6HIS-Tev-LRRK2 (1326-2527) (Homo sapiens, UniProt Q5S007)
T1 construct: A LRRK2 cDNA encoding residues 1326-2527 was received from Dundee University; made in house; host or cells: Spodoptera frugiperda Sf9 (baculovirus, pFB-HTb)
T1 sequence (Q5S007 1326-2527): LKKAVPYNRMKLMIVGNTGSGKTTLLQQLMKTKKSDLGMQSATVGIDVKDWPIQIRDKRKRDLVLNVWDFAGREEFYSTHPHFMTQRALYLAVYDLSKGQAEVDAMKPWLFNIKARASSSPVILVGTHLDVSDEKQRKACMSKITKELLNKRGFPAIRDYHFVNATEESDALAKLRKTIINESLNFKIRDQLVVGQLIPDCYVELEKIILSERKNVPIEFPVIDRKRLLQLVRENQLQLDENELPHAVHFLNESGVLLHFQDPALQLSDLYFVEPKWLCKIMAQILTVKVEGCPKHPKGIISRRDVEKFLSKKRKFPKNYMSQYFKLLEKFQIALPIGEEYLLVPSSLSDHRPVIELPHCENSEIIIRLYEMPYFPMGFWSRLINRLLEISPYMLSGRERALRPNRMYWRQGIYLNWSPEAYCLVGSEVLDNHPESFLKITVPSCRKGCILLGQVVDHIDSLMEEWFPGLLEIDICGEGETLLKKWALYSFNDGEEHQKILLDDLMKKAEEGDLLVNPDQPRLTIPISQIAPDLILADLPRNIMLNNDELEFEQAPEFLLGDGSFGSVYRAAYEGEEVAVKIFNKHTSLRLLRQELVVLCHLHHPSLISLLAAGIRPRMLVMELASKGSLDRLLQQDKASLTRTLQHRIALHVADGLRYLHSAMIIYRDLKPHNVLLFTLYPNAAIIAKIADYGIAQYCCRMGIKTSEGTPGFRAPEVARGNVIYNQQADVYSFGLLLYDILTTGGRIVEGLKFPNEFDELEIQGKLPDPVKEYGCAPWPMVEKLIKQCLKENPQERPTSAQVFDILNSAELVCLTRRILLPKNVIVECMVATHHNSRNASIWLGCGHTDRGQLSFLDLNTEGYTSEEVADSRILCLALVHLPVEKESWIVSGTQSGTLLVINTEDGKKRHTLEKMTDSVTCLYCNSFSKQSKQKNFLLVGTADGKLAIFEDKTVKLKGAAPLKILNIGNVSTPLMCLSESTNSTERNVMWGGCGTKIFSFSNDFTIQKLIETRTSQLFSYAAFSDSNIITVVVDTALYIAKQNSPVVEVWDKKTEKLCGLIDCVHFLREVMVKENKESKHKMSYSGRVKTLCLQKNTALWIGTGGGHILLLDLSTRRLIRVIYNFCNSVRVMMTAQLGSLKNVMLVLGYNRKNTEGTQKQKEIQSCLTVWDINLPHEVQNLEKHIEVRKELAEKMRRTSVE
Assay: LRRK2 Inhibition Mass Spectrometry Assay
Assay type: biochemical
Conditions: 60 nM LRRK2 enzyme; 20 uM ATP
Description: A LRRK2 cDNA encoding residues 1326-2527 was received from Dundee University (described in M. Jaleel et al., 2007, Biochem J, 405: 407-417). This gene fragment was subcloned into pFB-HTb (Invitrogen) using BamHI and NotI restriction sites. The LRRK2 plasmid was recombined into the baculovirus genome according to the BAC-to-BAC protocol described by Invitrogen. Transfection into Spodoptera frugiperda (Sf9) insect cells was performed using Cellfectin (Invitrogen), according to the manufacturer's protocol to generate P1 and P2 baculovirus stocks.
Sf9 cells were grown in HyClone SFX (Thermo Scientific) growth media at 27° C., 80 rpm in shake flask until of a sufficient volume to inoculate a bioreactor. The cells were grown in a 20 liter working volume Wave bioreactor (GE Healthcare) at 27° C., 50% dissolved oxygen and an agitation rate 22 rocks per minute, 10 degree rock angle, 200 ml/min air with a cell concentration of approximately 6×e6 cells/ml. The cells were infected with P2 Baculovirus at a multiplicity of infection (MOI) of 3. The cultivation was continued for a 48 hour expression phase. The infected cells were removed from the growth media by centrifugation at 2500 g using a Sorvall RC 3C Plus centrifuge at 2500 g for 20 minutes. The cell pellet was immediately frozen and subsequently supplied for purification.
A 260 g pellet was allowed to thaw in a water bath at 27° C. with 800 ml lysis buffer/buffer A (50 mm Tris-HCl pH 8.5, 300 mM NaCl, 1 mm DTT, 10% glycerol, 1 ml/L calbiochem complete protease inhibitor cocktail and benzonase (50 ul/800 ml)) before being dounce homogenised on ice using 20 strokes per 100 ml. The suspension was packed in ice and sonicated at 50% amplitude for 3 min 10 sec on/off using a ¾″ probe. The suspension was then centrifuged at 100,000 g for 90 min, at 4° C.
The lysate (700 ml) was decanted from the insoluble pellet and contacted for 3 h at 4 C with 10 ml His bind Ni NTA resin by end over end mixing. The resin was recovered by centrifugation, 3000 g, 5 min at 4 C, and packed in an XK16 column. The column was then washed with 10 column volumes buffer A, 10 column volumes buffer B (buffer A+1M NaCl) and 10 column volumes buffer C (buffer A+20 mM imidazole). The column was then eluted with 15 column volumes buffer D (buffer A+300 mM imidazole) collecting 2 ml fractions. All washes and elution were conducted at 4 ml/min.
Fractions identified by SDS-PAGE as containing protein of interest were pooled and loaded directly onto a 320 ml SEC Superdex 200 pg column that was pre-equilibrated with buffer E (50 mM Tris-HCl pH 8.5, 300 mM NaCl, 10% glycerol, 1 mM DTT). The column was loaded and eluted with 1.2 column volumes buffer E at 2 ml/min collecting 2 ml fractions. Fractions identified by SDS-PAGE as containing protein of interest were tested for activity.
Production of LRRKtide for LRRK2 Inhibition Mass Spectrometry Assay
The ‘LRRKtide’ peptide H-RLGRDKYKTLRQIRQ-OH was synthesized as follows. The protected peptide was assembled on a solid-phase synthesiser using preloaded Wang resin and utilising standard Fmoc synthesis protocols. The crude peptide was obtained after cleavage from the resin with a mixture of trifluoroacetic acid (TFA), triisopropylsilane and water (95:2.5:2.5) for 3 hours at room temperature and was then purified using a C18 reverse-phase column utilising a 0.1% TFA-buffered water/acetonitrile gradient. The resulting fractions were analysed and fractions which were >95% pure by analytical HPLC and giving the correct molecular weight (mw) (by MALDiTOF mass spectroscopy) were pooled and freeze dried. The final material was analysed by HPLC and MALDiTOF mass spectroscopy.
LRRK2 Inhibition Mass Spectrometry Assay
This assay for Leucine Rich Repeat Kinase 2 (LRRK2) inhibition is based on the direct measurement of the peptide ‘LRRKtide’ (LRRKtide: RLGRDKYKT*LRQIRQ (H-RLGRDKYKTLRQIRQ-OH used for this screen)) and phosphorylated ‘LRRKtide’ using a high throughput RapidFire mass spectrometry assay. […]

Row | Compound | pIC50 in the LRRK2 Inhibition Mass Spectrometry Assay
1 | trans-4-ethoxy-N-(1-(3-fluoro-1-methylpiperidin-4-yl)-5-methyl-1H-pyrazol-4-yl)-7H-pyrrolo[2,3-d]pyrimidin-2-amine [Example E74] | ≥ 7.0
2 | CCOc1nc(Nc2cnn(C3CCOCC3C)c2C)nc2[nH]ccc12 (single isomer, unassigned) [Example E113, (cis)-4-ethoxy-N-(5-methyl-1-(3-methyltetrahydro-2H-pyran-4-yl)-1H-pyrazol-4-yl)-7H-pyrrolo[2,3-d]pyrimidin-2-amine] | ≥ 7.0
3 | CCOc1nc(Nc2cnn(C3CCN(C4COC4)CC3F)c2C)nc2[nH]ccc12 (single isomer, unassigned) [Example E103, cis-4-ethoxy-N-(1-(3-fluoro-1-(oxetan-3-yl)piperidin-4-yl)-5-methyl-1H-pyrazol-4-yl)-7H-pyrrolo[2,3-d]pyrimidin-2-amine] | ≥ 7.0
4 | trans-3-(4-((4-ethoxy-7H-pyrrolo[2,3-d]pyrimidin-2-yl)amino)-5-methyl-1H-pyrazol-1-yl)cyclopentanol [Example E58] | ≥ 7.0
5 | CCOc1nc(Nc2cnn(C3CCCOC3)c2C)nc2[nH]ccc12 (single isomer, unassigned) [Example E31, 4-ethoxy-N-(5-methyl-1-(tetrahydro-2H-pyran-3-yl)-1H-pyrazol-4-yl)-7H-pyrrolo-[2,3-d]pyrimidin-2-amine] | ≥ 7.0
6 | CCOc1nc(Nc2cnn(C3CNCCC3(F)F)c2C)nc2[nH]ccc12 (single isomer, unassigned) [Example E117, N-(1-(4,4-difluoropiperidin-3-yl)-5-methyl-1H-pyrazol-4-yl)-4-ethoxy-7H-pyrrolo[2,3-d]pyrimidin-2-amine] | ≥ 7.0
7 | CCOc1nc(Nc2cnn(C3CN(C4COC4)CCC3(F)F)c2Cl)nc2[nH]ccc12 (single isomer, unassigned) [Example E123, N-(5-chloro-1-(4,4-difluoro-1-(oxetan-3-yl)piperidin-3-yl)-1H-pyrazol-4-yl)-4-ethoxy-7H-pyrrolo[2,3-d]pyrimidin-2-amine] | ≥ 7.0
8 | CCOc1nc(Nc2cnn([C@H]3CCN(C4COC4)C[C@@H]3F)c2Cl)nc2[nH]ccc12 (single isomer, unassigned) [Example E104] | ≥ 7.0
9 | CCOc1nc(Nc2cnn(C3CCN(C4COC4)CC3(F)F)c2C)nc2[nH]ccc12 (single isomer, unassigned) [Example E131, N-(1-(3,3-difluoro-1-(oxetan-3-yl)piperidin-4-yl)-5-methyl-1H-pyrazol-4-yl)-4-ethoxy-7H-pyrrolo[2,3-d]pyrimidin-2-amine] | ≥ 7.0
10 | CCOc1nc(Nc2cnn([C@H]3C[C@H](F)CN(C4COC4)C3)c2Cl)nc2[nH]ccc12 [Example E150, N-(5-chloro-1-((3S,5S)-5-fluoro-1-(oxetan-3-yl)piperidin-3-yl)-1H-pyrazol-4-yl)-4-ethoxy-7H-pyrrolo[2,3-d]pyrimidin-2-amine] | ≥ 7.0
11 | CCOc1nc(Nc2cnn(C3CCN(C4COC4)CC3)c2C)nc2[nH]ccc12 [Example E53, 4-ethoxy-N-(5-methyl-1-(1-(oxetan-3-yl)-piperidin-4-yl)-1H-pyrazol-4-yl)-7H-pyrrolo-[2,3-d]-pyrimidin-2-amine] | ≥ 7.0
12 | CCOc1nc(Nc2cnn(C3(C)CC(N4CCOCC4)C3)c2C)nc2[nH]ccc12 (centres unmarked) [Example E137, 4-ethoxy-N-(5-methyl-1-(1-methyl-3-morpholinocyclobutyl)-1H-pyrazol-4-yl)-7H-pyrrolo[2,3-d]pyrimidin-2-amine] | ≥ 7.0
13 | CCOc1nc(Nc2cnn(C3CN(C4COC4)CCC3(F)F)c2C)nc2[nH]ccc12 (single isomer, unassigned) [Example E119, N-(1-(4,4-difluoro-1-(oxetan-3-yl)piperidin-3-yl)-5-methyl-1H-pyrazol-4-yl)-4-ethoxy-7H-pyrrolo[2,3-d]pyrimidin-2-amine] | ≥ 7.0
14 | CCOc1nc(Nc2cnn(C3CCOCC3C)c2C)nc2[nH]ccc12 (single isomer, unassigned) [Example E114, (cis)-4-ethoxy-N-(5-methyl-1-(3-methyltetrahydro-2H-pyran-4-yl)-1H-pyrazol-4-yl)-7H-pyrrolo[2,3-d]pyrimidin-2-amine] | ≥ 7.0
15 | CCOc1nc(Nc2cnn([C@@H]3CCCN(C4COC4)C3)c2C)nc2[nH]ccc12 [Example E135, (R)-4-ethoxy-N-(5-methyl-1-(1-(oxetan-3-yl)piperidin-3-yl)-1H-pyrazol-4-yl)-7H-pyrrolo [2,3-d]pyrimidin-2-amine] | ≥ 7.0
16 | CCOc1nc(Nc2cnn(CCN3CCO[C@H](C(F)F)C3)c2C)nc2[nH]ccc12 [Example E100, (S)—N-(1-(2-(2-(difluoromethyl)morpholino)ethyl)-5-methyl-1H-pyrazol-4-yl)-4-ethoxy-7H-pyrrolo[2,3-d]pyrimidin-2-amine] | ≥ 7.0
17 | CCOc1nc(Nc2cnn(C3CCC(N4CCOCC4)C3)c2C)nc2[nH]ccc12 (single isomer, unassigned) [Example E108, (trans)-4-ethoxy-N-(5-methyl-1-(3-morpholinocyclopentyl)-1H-pyrazol-4-yl)-7H-pyrrolo[2,3-d]pyrimidin-2-amine] | ≥ 7.0

— US10618901B2 (GlaxoSmithKline Intellectual Property Development Limited, priority 2014, dated 2020)
